In patent US6357163B1 (priority 1991, dated 2002):

Tests used:
[1] = general procedure: Boc solid-phase peptide synthesis; BHA resin; MBHA resin (initial substitution 0.3 mmol/g); pentafluorophenyl esters (BocTaeg-OPfp); settings: whole synthesis; for crude HPLC purity / final HPLC purity: analytical reverse-phase HPLC (% of total absorbance)
[2] = general procedure: Boc solid-phase peptide synthesis; MBHA resin; pentafluorophenyl esters (BocTaeg-OPfp); settings: whole synthesis

Row | Substance | crude HPLC purity [1] | final HPLC purity [1] | also measured
1 | Acr^1-[Taeg]10-Lys-NH2 | about 45% | >97% | –
2 | Acr^1-[Taeg]15-Lys-NH2 | about 35% | – | –
3 | Ac—[Taeg]10-Lys-NH2 | about 75% | >95% | –
4 | H-Taeg-Aaeg-[Taeg]8-Lys-NH2 | less than 50% | – | difficulty met [2]: about 50% incorporation of A(Z)aeg
5 | H—[Taeg]2-Aaeg-[Taeg]5-Lys-NH2 | – | – | difficulty met [1]: a total of about 82% incorporation of A(Z)aeg after coupling three times
6 | H—[Taeg]5-Caeg-[Taeg]4-Lys-NH2 | >50% | 96% | –
7 | H—[Taeg]5-Lys-NH2 | about 90% | 99% | –
8 | H—[Taeg]10-Lys-NH2 | – | – | crude HPLC purity ([1]; run 1): about 50%; final HPLC purity ([1]; run 1): >95%; crude HPLC purity ([1]; run 2): about 78%; final HPLC purity ([1]; run 2): 82%
